Counter-ions that a name gives are not always drawn. Some of the results follow. Single values are uncertain, as repeats are few or missing.
Columns and labels:
Assay in all cases: reduction in cell viability relative to untreated/vehicle; higher = more growth inhibition
Conditions in all cases: 200 nM; 72 h
M229P = system: M229P (parental melanoma line)
M229R = system: M229R (matched melanoma line resistant to BRAF inhibitors)
M238P = system: M238P (parental melanoma line)
M238R = system: M238R (matched melanoma line resistant to BRAF inhibitors)
M249P = system: M249P (parental melanoma line)
M249R = system: M249R (matched melanoma line resistant to BRAF inhibitors)
UACC62P = system: UACC62P (parental melanoma line)
UACC62R = system: UACC62R (matched melanoma line resistant to BRAF inhibitors)

Row | Compound | reduction in cell viability (M229P) | reduction in cell viability (M229R) | reduction in cell viability (M238P) | reduction in cell viability (M238R) | reduction in cell viability (M249P) | reduction in cell viability (M249R) | reduction in cell viability (UACC62P) | reduction in cell viability (UACC62R)
1 | CC(C)(C)OC(=O)CN(Cc1ccc(Cl)cc1)Cc1ccc([N+](=O)[O-])s1 | < 0% | < 0% | < 0% | < 0% | < 0% | < 0% | < 0% | < 0%
2 | CS(=O)(=O)c1cccc(CNc2nc(Nc3ccc4c(c3)CCC(=O)N4)ncc2C(F)(F)F)c1 | < 0% | < 0% | < 0% | < 0% | < 0% | < 0% | < 0% | < 0%
3 | NCC(=O)Nc1ccc(-n2nc(C(F)(F)F)cc2-c2ccc3c(ccc4ccccc43)c2)cc1 | < 0% | < 0% | < 0% | < 0% | < 0% | < 0% | < 0% | < 0%
4 | CNC(C)C1CCC(N)C(OC2C(N)CC(N)C(OC3OCC(C)(O)C(NC)C3O)C2O)O1 (stereo not given) [Gentamycin sulfate] | < 0% | < 0% | < 0% | < 0% | < 0% | < 0% | < 0% | < 0%
5 | Cn1c(N2CCCCS2(=O)=O)nc(C(=O)NCc2ccc(F)cc2)c(O)c1=O | < 0% | < 0% | < 0% | < 0% | < 0% | < 0% | < 0% | < 0%
6 | NC[C@H]1O[C@H](O[C@H]2[C@H](O)[C@@H](O[C@H]3O[C@H](CO)[C@@H](O)[C@H](N)[C@H]3O)[C@H](N)C[C@@H]2N)[C@H](N)C[C@@H]1O [Tobramycin] | < 0% | < 0% | < 0% | < 0% | < 0% | 4.74% | < 0% | < 0%
7 | O=C(NOCC1CC1)c1ccc(F)c(F)c1Nc1ccc(I)cc1Cl | 6.03% | < 0% | 24.1% | < 0% | 13.2% | < 0% | 58.4% | 10.1%
8 | CN(C)/[N+]([O-])=N/Oc1cc(ON[N+](=O)N2CCN(C(=O)c3cc(Cc4n[nH]c(=O)c5ccccc45)ccc3F)CC2)c([N+](=O)[O-])cc1[N+](=O)[O-] | < 0% | < 0% | < 0% | < 0% | < 0% | < 0% | < 0% | < 0%
9 | O=C(O)CC/C=C\CC[C@@H]1[C@@H](N2CCCCC2)[C@@H](O)C[C@@H]1OCc1ccc(-c2ccccc2)cc1 [Vapiprost hydrochloride] | < 0% | < 0% | < 0% | < 0% | < 0% | < 0% | < 0% | < 0%
10 | COc1cc2c(cc1OC)[C@@H]1Cc3ccc(OC)c(OC)c3CN1CC2 [Rotundine] | < 0% | < 0% | < 0% | < 0% | < 0% | < 0% | < 0% | < 0%
11 | CN1CCCC(n2nc(Cc3ccc(Cl)cc3)c3ccccc3c2=O)CC1 (stereo not given) [Azelastine hydrochloride] | < 0% | < 0% | < 0% | < 0% | < 0% | < 0% | < 0% | < 0%
12 | O=c1cc(CN2CCOCC2)occ1OCCCCCSc1ccnc2cc(C(F)(F)F)ccc12 | 9.47% | < 0% | < 0% | < 0% | < 0% | < 0% | < 0% | < 0%
13 | CCN(CC)CCCC(C)Nc1ccnc2cc(Cl)ccc12 (stereo not given) [Chloroquine] | 1.28% | < 0% | < 0% | < 0% | < 0% | 16.2% | < 0% | < 0%
14 | C[C@@H](N[C@H]1CCCC[C@@H]1NC(=O)c1ccc(Cl)cc1)c1cccc2ccccc12 [Calhex-231] | < 0% | < 0% | < 0% | < 0% | 0.26% | < 0% | < 0% | 3.6%
15 | CN[C@@H](C)[C@H]1[C@H](O)C[C@@]2(C)[C@@H]3CC[C@H]4C(C)(C)[C@@H](NC)CC[C@@]45C[C@@]35CC[C@]12C [Cyclovirobuxin D] | < 0% | < 0% | < 0% | < 0% | < 0% | < 0% | < 0% | < 0%
16 | C[C@@H](O)[C@H]1C(=O)N2C(C(=O)[O-])=C(SC3Cn4cnc[n+]4C3)[C@H](C)[C@H]12 (stereo not given in full) [Biapenem] | 5.08% | < 0% | < 0% | < 0% | < 0% | 10.3% | < 0% | < 0%
17 | Nc1ncnc2ccccc12 [4-Quinazolinamine] | < 0% | < 0% | < 0% | < 0% | < 0% | < 0% | < 0% | < 0%
18 | Cc1c(C)n(Cc2ccc(-c3ccccc3C(=O)O)cc2)c2ccc(C(=O)N[C@@H](C)c3ccc([N+](=O)[O-])cc3)cc12 | < 0% | < 0% | < 0% | < 0% | < 0% | < 0% | < 0% | < 0%
19 | Nc1nc(Nc2ccc(S(N)(=O)=O)cc2)nn1C(=O)c1c(F)cccc1F | < 0% | < 0% | < 0% | < 0% | < 0% | 4.14% | < 0% | < 0%
20 | C=C1C(=O)[C@]23[C@H](O)[C@H]1CC[C@H]2[C@@]12CO[C@]3(O)[C@@H](O)[C@@H]1C(C)(C)CC[C@@H]2O [Oridonin] | < 0% | < 0% | < 0% | < 0% | < 0% | < 0% | < 0% | < 0%

Among those listed so far, 3 have a CF3 group.
Row | Compound | reduction in cell viability (M229P) | reduction in cell viability (M229R) | reduction in cell viability (M238P) | reduction in cell viability (M238R) | reduction in cell viability (M249P) | reduction in cell viability (M249R) | reduction in cell viability (UACC62P) | reduction in cell viability (UACC62R)
2 | CS(=O)(=O)c1cccc(CNc2nc(Nc3ccc4c(c3)CCC(=O)N4)ncc2C(F)(F)F)c1 | < 0% | < 0% | < 0% | < 0% | < 0% | < 0% | < 0% | < 0%
3 | NCC(=O)Nc1ccc(-n2nc(C(F)(F)F)cc2-c2ccc3c(ccc4ccccc43)c2)cc1 | < 0% | < 0% | < 0% | < 0% | < 0% | < 0% | < 0% | < 0%
12 | O=c1cc(CN2CCOCC2)occ1OCCCCCSc1ccnc2cc(C(F)(F)F)ccc12 | 9.47% | < 0% | < 0% | < 0% | < 0% | < 0% | < 0% | < 0%

From the supplement of paper PMC9015667
